Measurements published in patent US8486979B2, “1,2,4 oxadiazole compounds and methods of use thereof” (AbbVie Inc., priority 2006, dated 2013).
Some results were stated once for a whole list of compounds, not compound by compound.

The chains behind the UniProt entries cited, without tags or fusion partners. Residues count along the entry.
UniProt P17787, 26-502: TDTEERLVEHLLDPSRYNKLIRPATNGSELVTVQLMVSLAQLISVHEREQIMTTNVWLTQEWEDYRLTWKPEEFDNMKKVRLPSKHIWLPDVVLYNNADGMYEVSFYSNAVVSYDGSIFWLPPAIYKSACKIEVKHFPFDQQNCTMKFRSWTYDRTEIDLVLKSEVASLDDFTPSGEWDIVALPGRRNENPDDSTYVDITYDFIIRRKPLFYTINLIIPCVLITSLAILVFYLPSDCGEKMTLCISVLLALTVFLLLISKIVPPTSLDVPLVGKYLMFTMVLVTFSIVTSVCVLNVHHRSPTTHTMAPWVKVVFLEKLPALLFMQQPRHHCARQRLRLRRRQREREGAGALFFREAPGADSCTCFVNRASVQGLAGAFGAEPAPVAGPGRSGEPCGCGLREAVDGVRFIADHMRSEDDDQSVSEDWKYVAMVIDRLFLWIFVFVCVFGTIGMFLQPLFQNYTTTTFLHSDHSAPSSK
UniProt P43681, 29-627 limits assumed: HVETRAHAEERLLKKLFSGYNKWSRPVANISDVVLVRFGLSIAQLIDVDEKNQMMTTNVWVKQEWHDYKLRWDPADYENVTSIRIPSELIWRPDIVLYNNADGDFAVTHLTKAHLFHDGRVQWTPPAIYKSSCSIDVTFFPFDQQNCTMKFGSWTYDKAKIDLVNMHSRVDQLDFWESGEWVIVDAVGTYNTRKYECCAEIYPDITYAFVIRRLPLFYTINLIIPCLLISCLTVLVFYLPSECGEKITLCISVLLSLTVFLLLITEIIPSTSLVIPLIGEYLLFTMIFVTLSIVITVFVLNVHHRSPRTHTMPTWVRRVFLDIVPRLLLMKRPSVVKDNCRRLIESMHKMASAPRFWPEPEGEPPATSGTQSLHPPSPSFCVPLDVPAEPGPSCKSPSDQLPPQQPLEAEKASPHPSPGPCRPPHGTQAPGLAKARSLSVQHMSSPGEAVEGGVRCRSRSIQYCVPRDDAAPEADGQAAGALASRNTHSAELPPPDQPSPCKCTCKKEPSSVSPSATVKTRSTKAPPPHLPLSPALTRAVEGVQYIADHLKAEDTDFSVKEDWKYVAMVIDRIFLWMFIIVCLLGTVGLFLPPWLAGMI

Target: T1, human α4β2 nicotinic acetylcholine receptor (Homo sapiens, UniProt P17787+P43681)
T1 construct: expressed in transfected cells
Assay: Calcium flux (FLIPR) assay, HEK-293 cells expressing human α4β2 nAChR
Assay type: cell-based
Details: in the presence of α4β2 PAM Compound 1 at 10 μM
Description: Experimental Procedure: Human embryonic kidney (HEK) 293 cells stably expressing human α4β2 or α3β4 combinations are grown to confluency in 162 cm^2 tissue culture flasks in DMEM media supplemented with 10% FBS and 25 μg/ml zeocin and 200 μg/ml hygromycin B. IMR-32 neuroblastoma cells (ATCC) are grown to confluency in 162 cm^2 tissue culture flasks in minimum essential media supplemented with 10% FBS and 1 mM sodium pyruvate, 1% non-essential amino acids and 1% antibiotic-antimycotic. […] Calcium flux was measured using calcium-3 assay kit (Molecular Devices, Sunnyvale, Calif.) or fluo-4 (Invitrogen). […] The cells were loaded with 100 μl of the dye per well and incubated at room temperature for up to one hour for HEK 293 clonal stable cell lines or 30 minutes-45 minutes at 37° C. for IMR-32 cells Fluorescence measurements were read simultaneously from all the wells by a Fluorometic Imaging Plate Reader (FLIPR) at an excitation wavelength of 480 nm and an emission wavelength of 520 nm. Baseline fluorescence was measured for the first 6 seconds at which 3× concentrations of modulator/test compounds were added to the cell plate at 50 μl and incubated for five minutes. The fluorescence intensity was captured every second for the first 1 minute followed by every 5 seconds for an additional 4 minutes. […]

## N[C@@H]1CCN(c2cccnc2)C1 [Compound B, (3R)-1-pyridin-3-ylpyrrolidin-3-amine, reference compound]
  leftward shift of agonist concentration-response (EC50): 10-100 fold
